Tested on: AR-driven transcription (ARE-Luciferase)
Assay: AR-driven transcription ARE Luciferase reporter assay in CWR22Pc-R1-AD1 cells;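 also: cells stably carrying an ARE-driven firefly luciferase reporter, with luminescence as read-out, tested in phenol red free RPMI containing 10% charcoal stripped FBS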
Format: cell-based
Details: Homo sapiens, 24 h

SMILES	IC50
CCN(c1cc(-c2ccc(CN3CCOCC3)cc2)cc(C(=O)NCc2c(C)cc(C)[nH]c2=O)c1C)C1CCOCC1 [EPZ-6438]	> 30000 nM
CNC(=O)c1ccc(N2C(=S)N(c3ccc(C#N)c(C(F)(F)F)c3)C(=O)C2(C)C)cc1F [Enzalutamide]	100 nM

From PMC5760633, “Determining direct binders of the Androgen Receptor using a high-throughput Cellular Thermal Shift Assay” (Scientific Reports, 2018)
